Experimental data as given in patent publication US9163330B2, “Bifunctional stapled polypeptides and uses thereof” (President and Fellows of Harvard College, priority 2009, dated 2015).
At least one peptide structure holds a part that was inferred or is arguable (an end, a ring closure or a residue). No end group written: not given here.

Molecular target: T1, β-catenin (Homo sapiens, UniProt P35222)
T1 sequence (P35222 1-781): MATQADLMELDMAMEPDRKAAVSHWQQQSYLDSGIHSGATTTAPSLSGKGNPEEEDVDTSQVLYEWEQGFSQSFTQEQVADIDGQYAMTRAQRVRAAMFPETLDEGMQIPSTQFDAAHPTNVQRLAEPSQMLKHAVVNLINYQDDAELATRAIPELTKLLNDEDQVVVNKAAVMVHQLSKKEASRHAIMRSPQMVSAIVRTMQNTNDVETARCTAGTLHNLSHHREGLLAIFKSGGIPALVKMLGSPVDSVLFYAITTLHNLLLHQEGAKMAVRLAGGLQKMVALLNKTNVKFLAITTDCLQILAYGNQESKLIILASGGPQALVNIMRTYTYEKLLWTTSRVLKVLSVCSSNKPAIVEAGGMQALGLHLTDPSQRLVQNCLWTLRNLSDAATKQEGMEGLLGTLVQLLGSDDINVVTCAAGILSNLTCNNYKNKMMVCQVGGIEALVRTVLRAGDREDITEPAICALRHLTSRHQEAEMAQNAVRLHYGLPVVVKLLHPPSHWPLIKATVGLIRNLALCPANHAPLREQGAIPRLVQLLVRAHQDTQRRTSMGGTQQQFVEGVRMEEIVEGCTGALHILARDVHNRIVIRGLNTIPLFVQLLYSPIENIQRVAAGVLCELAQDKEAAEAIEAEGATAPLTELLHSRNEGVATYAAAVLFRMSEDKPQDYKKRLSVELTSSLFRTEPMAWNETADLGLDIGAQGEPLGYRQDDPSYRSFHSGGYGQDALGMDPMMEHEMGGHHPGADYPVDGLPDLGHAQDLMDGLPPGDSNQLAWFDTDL
Test: Binding affinity (Kd) of Tcf-4 and Axin-derived β-catenin-binding peptides
Settings: non-stapled wild type Axin sequence

ENPESILDEHVQRVMR [SEQ ID NO: 25, ENPESILDEHVQRVMR, reference compound]
Kd: ~3 µM
